Measurements reported in PubChem BioAssay AID602203 (INSERM, 2012).
This is an unselected part of 999 deposited reagents. 85 of all reagents (8.5%) count as active. 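Unclear how single-siRNA scores of -1, 0 or +1 give the printed -4 to 4 range; calls lie near -3 or 3 and beyond.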 Not given: the amount of reagent, the time to read-out, the dose of the treatment.

- Test: 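Genes whose knock-down alters cisplatin killing of lung cancer cells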 (follow-up of hits)
- Cell system: human A549 lung cancer cells
- Reagents: siRNA pair against human genes
- Challenge: cisplatin at a dose killing half of control-siRNA cells, given 48 h after transfection
- Measurement: 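Two siRNAs per gene scored +1 protective, -1 sensitizing, 0 if toxic by LDH or growth-reducing by WST-1; cisplatin given 48 h later at 50% control kill; scores summed, mean death shift versus control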
- Direction: summed siRNA score for cisplatin death: higher = more siRNAs reduced cisplatin-induced cell death; change in cisplatin death versus control: higher = fewer cells died than in control
- Hit rule: In these data the active calls have summed siRNA score for cisplatin death at about -3 or lower, or at about 3 or higher

Target gene,summed siRNA score for cisplatin death,change in cisplatin death versus control (percentage points),Call
LOC442265,-1,,inactive
MED24,-2,,inactive
ALDH7A1,3,6.8,active
USP50,0,,inactive
CASP1,-2,,inactive
TPX2,0,,inactive
PYGO1,0,,inactive
PDXK,3,4.53,active
ALK,3,12.1,active
STK11,2,,inactive
RBL1,0,,inactive
DAPK2,2,,inactive
PHKG1,1,,inactive
TARP,1,,inactive
UBAP2,0,,inactive
SLC16A9,1,,inactive
LOC442175,0,,inactive
CAPN7,-1,,inactive
MRPL43,1,,inactive
PAX3,0,,inactive
LOC285658,1,,inactive
CFAP410,3,8.74,active
LOC441969,1,,inactive
DHX58,0,,inactive
IL10RA,-1,,inactive
MAFF,-1,,inactive
HNRNPH1,1,,inactive
FREM2,1,,inactive
PEX12,0,,inactive
UBR1,-1,,inactive
LOC139189,0,,inactive
HLA-DPA1,0,,inactive
PLA2R1,0,,inactive
LOC441665,1,,inactive
CSAG1,0,,inactive
PSMD7,3,16,active
DNM1DN11-7,0,,inactive
SPHK1,0,,inactive
AR,-2,,inactive
UTRN,1,,inactive
ARG99,1,,inactive
USP5,0,,inactive
RPA3,0,,inactive
MARK4,2,,inactive
STOML2,-1,,inactive
LOC441759,2,,inactive
NEDD8,-2,,inactive
LOC442125,1,,inactive
GATAD1,-1,,inactive
LOC391345,1,,inactive
CNN1,1,,inactive
GPR174,2,,inactive
UBE2T,-3,-12,active
LOC441968,0,,inactive
GRM1,-1,,inactive
GOLT1A,2,,inactive
CHD2,0,,inactive
LOC392443,2,,inactive
RHOC,2,,inactive
POFUT1,-2,,inactive
ABCD1,-1,,inactive
LHFPL5,-1,,inactive
BRPF3,0,,inactive
CATSPERD,0,,inactive
FLJ10707,-1,,inactive
NCKAP1,-3,-7.63,active
LOC285544,-1,,inactive
LOC442198,-1,,inactive
KCNJ2,-2,,inactive
CNOT7,0,,inactive
NR3C2,0,,inactive
ADA,-2,,inactive
MAP3K14,2,,inactive
